# Results taken from article PMC7819943, “Rice protein-binding microarrays: a tool to detect cis-acting elements near promoter regions in rice”.
# By UniProt entry, the sequences of proteins in these tests, tags left out.
# UniProt Q0JBA9, entry or part of it: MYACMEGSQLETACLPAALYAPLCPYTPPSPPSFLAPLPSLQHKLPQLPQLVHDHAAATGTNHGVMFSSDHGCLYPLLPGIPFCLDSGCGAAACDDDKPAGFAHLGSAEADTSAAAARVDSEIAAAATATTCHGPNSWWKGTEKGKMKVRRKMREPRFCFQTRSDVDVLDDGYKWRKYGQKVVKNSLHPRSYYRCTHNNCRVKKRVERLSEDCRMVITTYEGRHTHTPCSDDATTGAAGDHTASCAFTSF
# The other results are listed elsewhere or left out.
# Target: OsWRKY34 (Oryza sativa, UniProt Q0JBA9 1-250)
# Assay: protein-binding microarray (RPBM); PBS, 2% BSA, 51.3 ng/ul salmon testes DNA, 50 uM zinc acetate, 200 nM TF, 25 C, 1 h; high values mean tight binding
# Settings: protein: recombinant; tags: N-terminal polyhistidine and DsRed monomer fusion (pET32a); label: CyDye5-dUTP incorporated in the synthesized complementary strand; 3' TTTTT single-stranded linker to array surface; dsDNA, one strand shown
# Summary of the method: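 Binding signal is defined as the fluorescence intensity of each feature in arbitrary units, read on an Axon 4000B scanner. Transcription factors with N-terminal polyhistidine and DsRed fusions came from E. coli BL21-CodonPlus and were purified on Ni–NTA. They were incubated at 200 nM for 1 h at 25 °C on a custom Agilent array that had been made double-stranded with Cy5-dUTP, with 50 µM zinc acetate present, and the array was washed.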
row,Sequence,binding signal
1,GTTTGCTTTTTTTTTCTTTTTTCTCTCTCATTGTTTTTTTCGGAGTCACCTAGTGCAG,9930 fluorescence intensity (a.u.)
2,TACTTACACACATCTCTGCGCTCCAATGCATCCCCTAACCCGGAGTCACCTAGTGCAG,8820 fluorescence intensity (a.u.)
3,TCTCACGTTTTTCCCACGTCAACCGACCTCGCGTCCGCGTCGGAGTCACCTAGTGCAG,10400 fluorescence intensity (a.u.)
4,AAATTTCCTTTCCTTCTTCCCTTGGCCCATCTCTCCCCTCCGGAGTCACCTAGTGCAG,9460 fluorescence intensity (a.u.)
5,GTTGGGGATGCGTTTTATCCAGTTTTGTGATCTAGGGACTCGGAGTCACCTAGTGCAG,11400 fluorescence intensity (a.u.)
6,AGGTTCACAATCTATCCGACTTTTGATTTTCTTTCAATTCCGGAGTCACCTAGTGCAG,9110 fluorescence intensity (a.u.)
7,GCGGGCCGCCATGCTAGTTATATTTACACACATTTAGAACCGGAGTCACCTAGTGCAG,9560 fluorescence intensity (a.u.)
8,GGGGATCTCTTCTTCTTCCTCGCGGCCGGCGCCGGCCATGCGGAGTCACCTAGTGCAG,11800 fluorescence intensity (a.u.)
9,AAAAGCACCACCGCTTGCCGTGTGGCCGTGTCCCGTTTCCCGGAGTCACCTAGTGCAG,8310 fluorescence intensity (a.u.)
10,AATGTGACCAAGCCAACTTAACTTATTATACTTCTTAGTTCGGAGTCACCTAGTGCAG,8680 fluorescence intensity (a.u.)
11,CCATATCCATCAGTAATAAGCTTTGACCTCTGCGTGCTTTCGGAGTCACCTAGTGCAG,8170 fluorescence intensity (a.u.)
12,AGAGACACAATAACTTCTTGCAATTATCCTCTGTGCTGTTCGGAGTCACCTAGTGCAG,8990 fluorescence intensity (a.u.)
13,GATATGCAATGCTGTTGCGGTTGCTGGTTTTCTAAATGCACGGAGTCACCTAGTGCAG,9470 fluorescence intensity (a.u.)
14,TACGCTGCTACTTCTCGCTCTTCCTCTCGCTGATCCTATTCGGAGTCACCTAGTGCAG,8330 fluorescence intensity (a.u.)
15,TCAGTCAGATCTCCGTCCGTCCGTCTGTGTCTCTTGGCCGCGGAGTCACCTAGTGCAG,10600 fluorescence intensity (a.u.)
16,CTATCTCGGTGTCTAATTGAGTACATGTTGCTATTTTTTGCGGAGTCACCTAGTGCAG,10700 fluorescence intensity (a.u.)
17,CTGTACTGTGCCCTTCTATATTCATGTACTACCTTGTTTCCGGAGTCACCTAGTGCAG,10400 fluorescence intensity (a.u.)
18,AGAAACGGAAAACACCCACAGTCCCAGCCACAGCACATTTCGGAGTCACCTAGTGCAG,8530 fluorescence intensity (a.u.)
19,GTCATTCTAGCATTTCCCAGATTCATTAACATTAATATAACGGAGTCACCTAGTGCAG,8050 fluorescence intensity (a.u.)
20,TAGCAACCGTGGATGAAGGTTGCCGCCGTTCTTGTCCGCCCGGAGTCACCTAGTGCAG,9100 fluorescence intensity (a.u.)
21,ATCACATCTTAACATTTCATTCTCTGCTCAAAGATTCGATCGGAGTCACCTAGTGCAG,8620 fluorescence intensity (a.u.)
22,ATCTATTCCCAACTATTATTTCTTTCTTGCCCTTTTATCTCGGAGTCACCTAGTGCAG,9370 fluorescence intensity (a.u.)
23,CTTGCTCGTTGTAACTGTTTAATCTATTATGTTTTTTTTTCGGAGTCACCTAGTGCAG,11000 fluorescence intensity (a.u.)

# 2 neighbouring entries already listed:
row,Sequence,binding signal
14,TACGCTGCTACTTCTCGCTCTTCCTCTCGCTGATCCTATTCGGAGTCACCTAGTGCAG,8330 fluorescence intensity (a.u.)
15,TCAGTCAGATCTCCGTCCGTCCGTCTGTGTCTCTTGGCCGCGGAGTCACCTAGTGCAG,10600 fluorescence intensity (a.u.)
